Results taken from publication PMC6221024.
No constants are given. Whether binding was seen depends on the method and setting. Binding seen in cells or lysates may run through a third protein.

Target: T1, syndecan‐4 (rat (endogenous in soleus muscle)) (UniProt P34901)
T1 sequence (chain, heparan sulfate chains attached to the ectodomain): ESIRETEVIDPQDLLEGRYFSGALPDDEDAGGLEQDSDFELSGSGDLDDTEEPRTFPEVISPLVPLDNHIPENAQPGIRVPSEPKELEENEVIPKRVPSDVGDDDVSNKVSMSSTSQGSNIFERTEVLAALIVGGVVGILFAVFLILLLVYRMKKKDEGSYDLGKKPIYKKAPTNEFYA
Experiment: co-IP; rat soleus muscle homogenates, un-injured (day 0) and 3 days after notexin injury; pre-cleared with Protein A/G beads; overnight with rabbit anti-myostatin (AB3239) or anti-SDC4 antibody, then Protein A/G; washed with 25 mM Tris, 150 mM NaCl, pH 7.2; eluted with 0.2 M glycin pH 2.5; immunoblot

Question: Which binding does the source give for “mature myostatin (from UniProt O35312 268-376) (ligand)” here?
Answer: no binding
